Source: paper PMC7180767, “Influence of Selected Antidepressants on the Ciliated Protozoan Spirostomum ambiguum: Toxicity, Bioaccumulation, and Biotransformation Products” (Molecules, 2020)
Values after ≈ are worked out from the molar mass of the structure shown.

Assays:
[1] = test system: Spirostomum ambiguum; experiment: microbe, parasite or virus in culture
[2] = test system: Daphnia magna; conditions: cited from earlier work

SMILES	EC50 ([1]; 24 h, 1 d, pH = 6.0)	EC50 ([1]; 24 h, 1 d, pH = 6.5)	EC50 ([1]; 24 h, 1 d, pH = 7.4)	EC50 ([1]; 48 h, 2 d, pH = 6.0)	EC50 ([1]; 48 h, 2 d, pH = 6.5)	EC50 ([1]; 48 h, 2 d, pH = 7.4)	EC50 ([1]; 168 h, 7 d, pH = 6.0)	EC50 ([1]; 168 h, 7 d, pH = 6.5)	EC50 ([1]; 168 h, 7 d, pH = 7.4)	48-h EC50 [2]
CNCCC(Oc1ccc(C(F)(F)F)cc1)c1ccccc1 (stereo not shown) [Fluoxetine, fluoxetine]	4.75 ± 0.23 µg/mL (≈ 15.4 µM)	2.32 ± 0.24 µg/mL (≈ 7.5 µM)	1.68 ± 0.19 µg/mL (≈ 5.43 µM)	2.88 ± 0.38 µg/mL (≈ 9.31 µM)	1.49 ± 0.14 µg/mL (≈ 4.82 µM)	1.39 ± 0.13 µg/mL (≈ 4.49 µM)	1.94 ± 0.53 µg/mL (≈ 6.27 µM)	0.96 ± 0.16 µg/mL (≈ 3.1 µM)	1.05 ± 0.22 µg/mL (≈ 3.39 µM)	–
CN1CCN2c3ccccc3Cc3ccccc3C2C1 (stereo not shown) [Mianserin, mianserin]	–	–	–	–	–	–	–	–	–	7.81 µg/mL
